Paper PMC10163288
The other results are listed elsewhere or left out.

B1: il2ra_site2_3nfp_sap_19_mot_HHH_b2_06150_000000217_0001_39_53_H_._HHH_b1_07003_af2_0001_0000500039_0000001_0_0001_af2pred_0001_1_af2pred_swapped (protein)
chain: SSSSDLEERVEELLEQVEELLENGDPERARELLEEAARLAAKNNNEELLKEIDEIAEEVNSSSSS
B2: il2ra_site1_2b5i_sap_14_mot_HHH_b1_02697_000000175_0001_1_14_H_._HHH_b1_02394_0001_0000100006_0000001_0_0001 (protein)
chain: SSSSDVHERVDELFHEASELWRKGNPEEARKLLEEAIELAEERGDPTAEDLQQMLERIRNSSSSS
B3: il2ra_site1_1z92_sap_22_mot_203a44625a3a2ba431098544127a80a6_0001_af2_000000214_0001_15_33_H_._HHH_b1_06856_af2_0001_0000300036_0000001_0_0001_af2pred_0001_af2p … (protein)
chain: SSSSDKLERNARIIVRLLLRAAGLSEEQREELERVAKELVEEGVNREELMKILHEVALKLASSSS
B4: il2ra_site1_3nfp_normal_mot_HHH_b2_01814_000000033_0001_1_16_H_._HHH_b2_07272_0001_0000200005_0000001_0_af2pred_0001_af2pred_swapped (protein)
chain: SSSSDESREADELIKEISEAKRRGDEEEARRILEELEELAKKANSPIAELAVRKLREEIDSSSSS
B5: il2ra_site1_3nfp_sap_15_mot_HHH_b2_08182_af2_000000158_0001_1_17_H_._26d2e3f6454d5080c908b55388c9dbdf_0001_af2_0001_0000100002_0000001_0_0001 (protein)
chain: NDARAVSKVVEEAAERFGIPSVEVTVENGKLHVEVEGNDDAARAIKWAAEAAAKIAKITVEVEHE
B6: il2ra_site2_2erj_sap_22_mot_HHH_b1_02968_000000142_0001_22_39_H_._HHH_b2_05170_0001_0000300027_0000001_0_0001 (protein)
chain: SSSSDEAEELLEEAKRLLEEGDPEQAFAVLARAALIALRAGDEELVREIRELAEEVFRAGSSSSS
B7: il2ra_site1_1z92_sap_12_mot_HHH_b1_07036_000000095_0001_39_53_H_._HHH_b2_03250_0001_0000100002_0000001_0_0001_af2pred_0001_af2pred (protein)
chain: SSSDEERLRRSLERLVELAVKEAGLSEEQKEELERLVEELIERGVDFHEAVRLILRLALELSSSS
B8: il2ra_site1_2b5i_sap_18_mot_HHH_b2_04997_af2_000000138_0001_1_34_H_._799e2d46ed21d3efa93e27a97ae18933_0001_1_af2_0001_0000100007_0000001_0_0001_af2pred_dldesign … (protein)
chain: SSSSSEVEKKVNELIEQARKEEDPEKREKILNEAYDLAEEAEDKNLIYKVVKERYLLENLSSSSS
B9: il2ra_site1_3nfp_normal_mot_66bb1f637706d7249e1dd387c51866da_0001_1_000000092_0001_54_65_H_._HHH_b2_01012_0001_0000100007_0000001_0_af2pred_0001_af2pred_1_swapp … (protein)
chain: SSSSSTEYLERLAERIEKAVDDREQAERLFKRFLEDAEKTGDERQLERLEELAREVLEKLSSSSS
B10: il2ra_site2_3nfp_sap_8_mot_HHH_b1_04622_000000276_0001_1_16_H_._HHH_b1_03679_af2_0001_0000200011_0000001_0_0001 (protein)
chain: SSSSSEELEELLREAEELLEEGDRFQATRVLAEAMELALRLNDREAVRKVLELFEHLRRLYSSSS

These binders were tested against il2ra, P01589 (assay: yeast display titration).

Apparent Kd, inactive:
B1 no binding seen, B2 no binding seen, B3 no binding seen, B4 no binding seen, B5 no binding seen, B6 no binding seen, B7 > 528 nM, B8 no binding seen, B9 no binding seen, B10 no binding seen
